This is one part of the list.
Legend:
Test in all cases: log2 fold change, soluble protein after heating vs DMSO (PISA); higher = thermal stabilisation; K562 lysate, 10 uM; active = over 0.2 and 3.5 SD of the protein, either way, in both replicates (recomputed)
[1] = compound: NCC(=O)Nc1ccc(-n2nc(C(F)(F)F)cc2-c2ccc3c(ccc4ccccc43)c2)cc1
Procedure, shortened: (§1)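 Log-two fold change in thermal stability relative to solvent controls is reported from duplicates. For each sample, crude K562 extract from dounce-homogenised pellets in PBS pH 7.4 with 1 mM MgCl2, at 1 mg/mL protein, was treated with 10 μM compound for 30 min. Aliquots heated for 3 min across 48°C-58°C were pooled, brought to 0.5% NP-40 at 4°C and cleared at 21,000xg for 90 min. The supernatant was quantified by TMTpro 16plex LC-MS/MS with channel sums equalised.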

Amino acid sequences for entries named in this document (tags omitted). A change or cut given only in a name is not applied to a line headed by its entry.
UniProt P04183: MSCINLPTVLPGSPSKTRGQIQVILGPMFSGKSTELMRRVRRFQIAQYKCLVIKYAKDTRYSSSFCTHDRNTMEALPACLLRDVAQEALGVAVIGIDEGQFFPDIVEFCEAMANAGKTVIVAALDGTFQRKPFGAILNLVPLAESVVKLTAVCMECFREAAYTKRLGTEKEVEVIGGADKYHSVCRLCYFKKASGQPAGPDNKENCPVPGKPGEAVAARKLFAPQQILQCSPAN
UniProt Q5JTD0: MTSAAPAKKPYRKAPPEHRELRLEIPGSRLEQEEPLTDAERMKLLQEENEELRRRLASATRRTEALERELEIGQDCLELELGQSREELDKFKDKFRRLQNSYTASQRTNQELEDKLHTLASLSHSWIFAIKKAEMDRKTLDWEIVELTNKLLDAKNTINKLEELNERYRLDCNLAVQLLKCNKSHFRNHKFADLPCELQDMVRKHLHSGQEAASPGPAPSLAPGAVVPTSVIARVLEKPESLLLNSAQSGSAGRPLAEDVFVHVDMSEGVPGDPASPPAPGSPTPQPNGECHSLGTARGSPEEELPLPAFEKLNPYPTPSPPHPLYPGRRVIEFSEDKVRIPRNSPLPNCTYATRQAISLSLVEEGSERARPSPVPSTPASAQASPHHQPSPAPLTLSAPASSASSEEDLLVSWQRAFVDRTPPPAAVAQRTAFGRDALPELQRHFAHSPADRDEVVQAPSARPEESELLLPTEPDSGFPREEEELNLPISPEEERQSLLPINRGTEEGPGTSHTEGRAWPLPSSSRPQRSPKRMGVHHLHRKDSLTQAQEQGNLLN
UniProt Q01085: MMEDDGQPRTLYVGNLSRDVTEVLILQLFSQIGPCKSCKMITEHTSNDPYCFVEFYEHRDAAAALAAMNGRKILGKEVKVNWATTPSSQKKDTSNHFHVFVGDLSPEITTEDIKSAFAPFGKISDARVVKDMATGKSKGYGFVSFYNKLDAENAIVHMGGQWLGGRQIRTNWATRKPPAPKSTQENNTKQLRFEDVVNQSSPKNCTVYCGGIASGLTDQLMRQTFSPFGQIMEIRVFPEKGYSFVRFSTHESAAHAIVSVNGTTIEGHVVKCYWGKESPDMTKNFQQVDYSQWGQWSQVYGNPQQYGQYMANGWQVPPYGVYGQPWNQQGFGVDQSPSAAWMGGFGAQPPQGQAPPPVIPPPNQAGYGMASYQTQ
UniProt P52888, whole entry, looked up: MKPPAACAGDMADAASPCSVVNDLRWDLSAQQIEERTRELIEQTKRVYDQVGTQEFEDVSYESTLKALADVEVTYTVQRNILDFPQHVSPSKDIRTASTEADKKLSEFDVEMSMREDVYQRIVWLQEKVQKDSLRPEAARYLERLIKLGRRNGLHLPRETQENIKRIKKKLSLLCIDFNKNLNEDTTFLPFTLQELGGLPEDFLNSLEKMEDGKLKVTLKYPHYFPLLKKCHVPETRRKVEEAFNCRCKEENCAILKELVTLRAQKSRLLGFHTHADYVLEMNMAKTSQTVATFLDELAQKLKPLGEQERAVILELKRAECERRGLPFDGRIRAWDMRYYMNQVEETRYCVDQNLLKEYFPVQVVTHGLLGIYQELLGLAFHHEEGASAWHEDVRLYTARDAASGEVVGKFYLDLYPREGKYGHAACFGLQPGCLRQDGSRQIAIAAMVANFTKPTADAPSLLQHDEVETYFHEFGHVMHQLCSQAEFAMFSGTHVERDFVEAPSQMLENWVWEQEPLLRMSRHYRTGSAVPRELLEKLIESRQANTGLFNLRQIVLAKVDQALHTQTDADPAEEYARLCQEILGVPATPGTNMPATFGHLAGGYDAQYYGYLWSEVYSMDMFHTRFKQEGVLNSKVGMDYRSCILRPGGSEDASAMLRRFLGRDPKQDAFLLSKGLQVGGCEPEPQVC
UniProt Q9NS93: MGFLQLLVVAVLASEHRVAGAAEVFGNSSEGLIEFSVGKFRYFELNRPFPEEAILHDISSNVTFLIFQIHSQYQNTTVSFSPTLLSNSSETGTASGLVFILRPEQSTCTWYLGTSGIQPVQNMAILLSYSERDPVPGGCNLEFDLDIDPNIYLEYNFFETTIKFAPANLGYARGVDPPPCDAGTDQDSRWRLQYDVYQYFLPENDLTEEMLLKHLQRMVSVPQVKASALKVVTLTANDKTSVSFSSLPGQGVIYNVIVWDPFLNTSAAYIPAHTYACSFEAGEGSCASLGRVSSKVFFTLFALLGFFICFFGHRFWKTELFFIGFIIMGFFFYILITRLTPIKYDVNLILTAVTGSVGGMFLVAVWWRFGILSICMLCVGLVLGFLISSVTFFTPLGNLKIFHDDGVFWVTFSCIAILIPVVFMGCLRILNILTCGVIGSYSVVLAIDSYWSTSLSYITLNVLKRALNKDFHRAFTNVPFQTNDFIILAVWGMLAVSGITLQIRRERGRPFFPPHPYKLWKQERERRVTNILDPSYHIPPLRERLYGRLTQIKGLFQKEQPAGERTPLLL
UniProt Q9BVW5: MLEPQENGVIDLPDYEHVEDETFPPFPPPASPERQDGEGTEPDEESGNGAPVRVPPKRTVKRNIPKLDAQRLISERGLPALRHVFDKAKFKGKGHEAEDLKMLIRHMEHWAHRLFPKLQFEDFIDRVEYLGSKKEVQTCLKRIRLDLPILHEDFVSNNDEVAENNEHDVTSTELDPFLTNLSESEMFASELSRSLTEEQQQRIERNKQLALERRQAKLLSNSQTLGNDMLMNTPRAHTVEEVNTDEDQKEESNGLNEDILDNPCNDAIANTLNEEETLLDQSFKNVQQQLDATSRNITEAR
UniProt Q96B96: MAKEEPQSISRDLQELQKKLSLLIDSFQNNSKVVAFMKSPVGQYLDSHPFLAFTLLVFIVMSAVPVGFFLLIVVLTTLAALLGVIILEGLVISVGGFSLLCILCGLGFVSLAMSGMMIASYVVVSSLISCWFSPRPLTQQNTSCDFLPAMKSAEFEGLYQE
UniProt Q8N9M5: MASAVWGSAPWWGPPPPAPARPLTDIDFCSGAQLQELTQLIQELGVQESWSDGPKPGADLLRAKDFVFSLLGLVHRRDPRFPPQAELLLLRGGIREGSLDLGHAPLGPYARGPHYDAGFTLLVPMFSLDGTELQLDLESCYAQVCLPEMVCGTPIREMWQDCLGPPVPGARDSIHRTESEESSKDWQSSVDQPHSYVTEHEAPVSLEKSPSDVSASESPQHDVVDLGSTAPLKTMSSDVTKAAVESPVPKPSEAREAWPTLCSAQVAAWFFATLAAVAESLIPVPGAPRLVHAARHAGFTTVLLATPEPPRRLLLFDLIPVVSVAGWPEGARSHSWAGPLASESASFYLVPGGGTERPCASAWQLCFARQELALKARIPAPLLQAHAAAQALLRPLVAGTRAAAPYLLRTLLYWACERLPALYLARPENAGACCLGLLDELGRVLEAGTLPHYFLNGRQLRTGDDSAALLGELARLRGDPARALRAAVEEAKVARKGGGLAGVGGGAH
UniProt Q9NPL8: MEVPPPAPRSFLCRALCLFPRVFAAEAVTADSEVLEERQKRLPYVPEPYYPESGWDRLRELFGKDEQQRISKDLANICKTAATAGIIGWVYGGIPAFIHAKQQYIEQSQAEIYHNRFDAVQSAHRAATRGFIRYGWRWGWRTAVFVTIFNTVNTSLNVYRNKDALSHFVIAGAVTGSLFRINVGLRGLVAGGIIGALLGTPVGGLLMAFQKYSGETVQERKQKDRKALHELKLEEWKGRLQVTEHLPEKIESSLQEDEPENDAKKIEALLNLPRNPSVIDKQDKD
UniProt P37173, whole entry, looked up: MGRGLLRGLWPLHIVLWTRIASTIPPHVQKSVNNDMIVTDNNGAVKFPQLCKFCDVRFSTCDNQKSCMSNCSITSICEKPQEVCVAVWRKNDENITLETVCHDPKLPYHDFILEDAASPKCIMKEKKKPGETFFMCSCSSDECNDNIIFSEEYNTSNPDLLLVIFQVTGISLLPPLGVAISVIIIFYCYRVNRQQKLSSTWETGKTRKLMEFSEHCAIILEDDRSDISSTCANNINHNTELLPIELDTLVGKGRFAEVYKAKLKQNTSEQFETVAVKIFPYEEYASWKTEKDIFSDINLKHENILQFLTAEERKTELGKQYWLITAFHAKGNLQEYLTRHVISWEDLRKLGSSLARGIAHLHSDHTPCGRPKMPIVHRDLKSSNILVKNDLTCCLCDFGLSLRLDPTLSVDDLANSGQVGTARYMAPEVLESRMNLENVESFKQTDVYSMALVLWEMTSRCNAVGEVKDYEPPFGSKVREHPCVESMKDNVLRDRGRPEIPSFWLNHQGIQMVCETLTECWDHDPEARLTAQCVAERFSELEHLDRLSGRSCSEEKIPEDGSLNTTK
UniProt Q9Y3Q3: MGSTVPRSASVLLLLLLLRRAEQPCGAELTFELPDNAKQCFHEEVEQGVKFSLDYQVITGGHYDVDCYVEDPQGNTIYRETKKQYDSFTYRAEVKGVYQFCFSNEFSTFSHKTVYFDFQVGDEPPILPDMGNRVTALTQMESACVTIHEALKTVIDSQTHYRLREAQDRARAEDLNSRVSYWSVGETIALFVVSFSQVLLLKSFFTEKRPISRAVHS
UniProt Q9H6X4: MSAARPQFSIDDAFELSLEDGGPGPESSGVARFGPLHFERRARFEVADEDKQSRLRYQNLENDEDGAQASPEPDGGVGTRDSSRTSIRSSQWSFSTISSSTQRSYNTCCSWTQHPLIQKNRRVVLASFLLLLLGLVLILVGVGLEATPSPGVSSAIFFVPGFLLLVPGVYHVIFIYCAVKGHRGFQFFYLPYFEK
UniProt Q6UWJ1: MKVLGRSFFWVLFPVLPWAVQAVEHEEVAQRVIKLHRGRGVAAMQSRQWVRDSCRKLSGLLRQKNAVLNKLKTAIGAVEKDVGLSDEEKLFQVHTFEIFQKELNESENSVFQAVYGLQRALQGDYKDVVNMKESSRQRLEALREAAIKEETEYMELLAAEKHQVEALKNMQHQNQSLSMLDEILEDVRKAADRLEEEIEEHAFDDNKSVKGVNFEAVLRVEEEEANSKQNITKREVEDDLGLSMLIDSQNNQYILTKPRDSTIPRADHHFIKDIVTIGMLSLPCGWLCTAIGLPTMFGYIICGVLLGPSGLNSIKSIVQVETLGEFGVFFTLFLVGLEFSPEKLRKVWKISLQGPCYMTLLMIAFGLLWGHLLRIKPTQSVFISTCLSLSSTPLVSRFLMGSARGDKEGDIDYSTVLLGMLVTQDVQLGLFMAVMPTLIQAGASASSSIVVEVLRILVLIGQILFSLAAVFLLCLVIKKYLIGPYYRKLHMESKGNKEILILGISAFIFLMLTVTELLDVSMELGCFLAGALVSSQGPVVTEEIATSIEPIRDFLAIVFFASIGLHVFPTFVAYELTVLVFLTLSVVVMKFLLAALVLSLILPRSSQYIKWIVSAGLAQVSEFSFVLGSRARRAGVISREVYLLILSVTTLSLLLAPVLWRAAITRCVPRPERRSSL

vorinostat = compound: O=C(CCCCCCC(=O)Nc1ccccc1)NO [vorinostat]
Procedure, shortened: as §1

silmitasertib = compound: O=C(O)c1ccc2c(c1)nc(Nc1cccc(Cl)c1)c1ccncc12 [silmitasertib]
Procedure, shortened: as §1

[2] = compound: O=C1NC(=O)C(c2cnc3ccccn23)=C1c1cn2c3c(cc(F)cc13)CN(C(=O)N1CCCCC1)CC2
Procedure, shortened: as §1

entospletinib = compound: c1cn2cc(-c3ccc4cn[nH]c4c3)nc(Nc3ccc(N4CCOCC4)cc3)c2n1 [entospletinib]
Procedure, shortened: as §1

Measured: log2 fold change

TK1 (UniProt P04183)
inactive: [1] 0.04 | vorinostat -0.028 | silmitasertib -0.001 | [2] 0.014 | entospletinib 0.035

TJAP1 (UniProt Q5JTD0)
inactive: [1] 0.077 | vorinostat 0.083 | silmitasertib 0.007 | [2] -0.003 | entospletinib -0.068

TIAL1 isoform 2 (UniProt Q01085)
inactive: [1] -0.001 | vorinostat 0.041 | silmitasertib 0.023 | [2] -0.049 | entospletinib 0.028

THOP1 (UniProt P52888)
inactive: [1] 0.002 | vorinostat 0.093 | silmitasertib 0.006 | [2] -0.018 | entospletinib 0.015

TM7SF3 (UniProt Q9NS93)
inactive: [1] -0.022 | vorinostat 0 | silmitasertib -0.011 | [2] 0.017 | entospletinib -0.042

TIPIN (UniProt Q9BVW5)
inactive: [1] 0.001 | vorinostat 0.042 | silmitasertib -0.03 | [2] 0.035 | entospletinib -0.014

TMEM167B (UniProt Q9NRX6)
inactive: [1] 0.019 | vorinostat 0 | silmitasertib 0.009 | [2] -0.033 | entospletinib 0.031

2 successive records out of the list so far, quoted:
TM7SF3 (UniProt Q9NS93)
inactive: [1] -0.022 | vorinostat 0 | silmitasertib -0.011 | [2] 0.017 | entospletinib -0.042

TIPIN (UniProt Q9BVW5)
inactive: [1] 0.001 | vorinostat 0.042 | silmitasertib -0.03 | [2] 0.035 | entospletinib -0.014

Further records

TMEM159 isoform 2 (UniProt Q96B96)
inactive: vorinostat 0.188 | silmitasertib -0.108 | [2] 0.138 | entospletinib -0.045

TMEM102 (UniProt Q8N9M5)
inactive: [1] 0.024 | [2] -0.044 | entospletinib -0.069

TIMMDC1 (UniProt Q9NPL8)
inactive: [1] 0.033 | vorinostat 0.001 | silmitasertib -0.057 | [2] 0.044 | entospletinib 0.005

TGFBR2 isoform 2 (UniProt P37173)
inactive: vorinostat 0.162 | silmitasertib -0.104 | entospletinib 0.159

TMED3 (UniProt Q9Y3Q3)
inactive: vorinostat -0.036 | silmitasertib 0.073 | [2] -0.034

TMEM134 (UniProt Q9H6X4)
inactive: vorinostat 0.184 | silmitasertib 0.009 | [2] -0.173

TMCO3 (UniProt Q6UWJ1)
inactive: [1] -0.014 | [2] 0.054 | entospletinib -0.036
